Data from US20240376225A1 (CHILDREN S MEDICAL CENTER, published 2024).
Results are given in words; binding and its absence hold for the method and conditions named. Some results given as binding are weak or reduced against the parent protein; the word gives no strength.

Columns and labels:
[1] = target: cyno CD21 on CHO cells (cynomolgus monkey); test: flow cytometry, CHO cells over-expressing cyno CD21
[2] = target: cyno CD21 on CHO cells (cynomolgus monkey); test: flow cytometry, CHO cells overexpressing cyno CD21
[3] = target: purified cynomolgus CD21 ECD protein (cynomolgus monkey); test: ELISA on coated purified cynomolgus CD21 ECD, Ab15 at 1 ug/ml, detection with goat anti-human IgG Fc-HRP, OD450
[4] = target: purified cynomolgus CD21 ECD protein (cynomolgus monkey); test: ELISA on coated CD21 ECD protein
[5] = target: cyno CD21 on CHO cells (cynomolgus monkey); test: flow cytometry blocking assay on CHO-cyno CD21 cells: Ab15 titrated, then biotinylated human C3d (4.5 ug/ml) detected with streptavidin conjugate; blocked ligand human C3d
[6] = target: cyno CD21 on CHO cells (cynomolgus monkey); test: flow cytometry, Ab15 titrated on CHO cells overexpressing cyno CD21, anti-human IgG-PE, Geo MFI

Measured: binding

B1: Ab15 (antibody, human IgG1, kappa, V domains shown)
VH: QVQLVQSGAEVKKPGSSVKVSCKASGGTFSSYAISWVRQAPGQGLEWMGRIIPILGIANYAQKFQGRVTITADKSTSTAYMELSSLRSEDTAVYYCAREDDSSGYYQDWGQGTLVTVSS
VL: EIVMTQSPATLSLSPGESATLSCRAGQSINSHLAWYQQKPGQSPSLLIYDASTRATGVPARFSGSGFGTEFTLTISSLQSEDFAVYFCQQYEYWYTFGQGTKLEIKR
notes: Tb-labeled in the HTRF assay; also called 36C01; SC38-36C01 (IgG1 version)
binds: all assays above
